# Results taken from publication PMC12238573 (Nature Communications, 2025).
# No constants are given. Whether binding was seen depends on the method and setting. For part of these data: Binding seen in cells or lysates may run through a third protein. Some results given as binding are weak or reduced against the parent protein; the word gives no strength.
# T1: PRPS1 (endogenous, mouse) (mouse (endogenous in NIH3T3 and C57BL/6 tissues)) (UniProt Q9D7G0)
# T1 sequence: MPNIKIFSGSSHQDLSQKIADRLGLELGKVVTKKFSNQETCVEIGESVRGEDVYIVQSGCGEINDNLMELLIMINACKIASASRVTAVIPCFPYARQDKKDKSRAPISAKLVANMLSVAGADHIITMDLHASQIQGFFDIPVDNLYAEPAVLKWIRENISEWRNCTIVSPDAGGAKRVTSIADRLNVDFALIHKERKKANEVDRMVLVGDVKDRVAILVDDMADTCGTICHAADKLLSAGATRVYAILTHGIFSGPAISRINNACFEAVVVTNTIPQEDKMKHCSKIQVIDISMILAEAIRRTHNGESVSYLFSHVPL
# T2: PRPS1-mNG11-ALFA (endogenous knock-in) (mouse (endogenous in NIH3T3)) (UniProt Q9D7G0)
# T2 sequence: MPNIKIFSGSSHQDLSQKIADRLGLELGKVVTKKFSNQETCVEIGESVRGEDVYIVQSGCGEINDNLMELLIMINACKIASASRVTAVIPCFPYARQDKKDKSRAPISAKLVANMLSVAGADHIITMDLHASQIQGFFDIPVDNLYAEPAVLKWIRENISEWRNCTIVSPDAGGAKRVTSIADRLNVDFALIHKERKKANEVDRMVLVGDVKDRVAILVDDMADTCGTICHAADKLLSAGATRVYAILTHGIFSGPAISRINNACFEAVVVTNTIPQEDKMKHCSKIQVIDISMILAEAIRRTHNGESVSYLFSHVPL
# T3: PRPS1-ALFA (transiently transfected) (UniProt Q9D7G0)
# T3 sequence: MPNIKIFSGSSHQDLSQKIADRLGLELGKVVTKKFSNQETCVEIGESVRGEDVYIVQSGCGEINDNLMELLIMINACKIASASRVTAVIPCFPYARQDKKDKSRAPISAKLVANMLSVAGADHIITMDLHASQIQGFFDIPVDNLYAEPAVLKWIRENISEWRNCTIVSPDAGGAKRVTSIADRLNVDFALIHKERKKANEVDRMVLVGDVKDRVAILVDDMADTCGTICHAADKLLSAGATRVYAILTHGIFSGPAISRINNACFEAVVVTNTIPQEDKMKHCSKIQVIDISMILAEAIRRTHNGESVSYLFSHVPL
# T4: PRPS2 (endogenous, mouse) (mouse (endogenous in NIH3T3 and C57BL/6 tissues)) (UniProt Q9CS42)
# T4 sequence: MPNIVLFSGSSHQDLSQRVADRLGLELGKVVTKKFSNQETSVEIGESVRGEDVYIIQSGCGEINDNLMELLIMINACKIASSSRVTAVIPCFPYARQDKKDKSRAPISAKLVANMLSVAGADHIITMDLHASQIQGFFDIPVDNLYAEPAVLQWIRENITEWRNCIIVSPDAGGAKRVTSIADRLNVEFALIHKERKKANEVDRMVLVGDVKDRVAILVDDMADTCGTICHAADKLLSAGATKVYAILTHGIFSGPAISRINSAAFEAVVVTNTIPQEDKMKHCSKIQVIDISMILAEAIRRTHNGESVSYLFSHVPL
# T5: PRPSAP2 (endogenous, mouse) (mouse (endogenous in NIH3T3 and C57BL/6 tissues)) (UniProt Q8R574)
# T5 sequence: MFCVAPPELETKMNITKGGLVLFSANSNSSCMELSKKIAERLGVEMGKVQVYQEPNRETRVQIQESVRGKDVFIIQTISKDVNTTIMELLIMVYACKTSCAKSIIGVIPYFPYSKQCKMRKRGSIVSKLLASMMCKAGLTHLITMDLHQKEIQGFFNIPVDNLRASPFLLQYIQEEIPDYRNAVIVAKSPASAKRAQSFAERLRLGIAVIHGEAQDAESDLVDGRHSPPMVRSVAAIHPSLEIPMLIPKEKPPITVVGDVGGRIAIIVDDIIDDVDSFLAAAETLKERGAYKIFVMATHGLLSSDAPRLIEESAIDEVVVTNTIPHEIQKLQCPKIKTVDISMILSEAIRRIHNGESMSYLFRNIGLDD
# Legend:
# [1] = molecular target: T1, PRPS1 (endogenous, mouse) (mouse (endogenous in NIH3T3 and C57BL/6 tissues)); experiment: SEC; native whole-cell lysates of NIH3T3 AP1 KO and AP1/AP2 KO cells on Yarra SEC-2000 (1 kDa to 300 kDa); fractions analysed by Western blot
# [2] = molecular target: T1, PRPS1 (endogenous, mouse) (mouse (endogenous in NIH3T3 and C57BL/6 tissues)); experiment: SEC; native tissue lysates (liver, kidney, lung) of 12-week-old male C57BL/6 mice on Superose 6 Increase 3.2/300; fractions analysed by Western blot
# [3] = molecular target: T2, PRPS1-mNG11-ALFA (endogenous knock-in) (mouse (endogenous in NIH3T3)); experiment: co-IP; ALFA-tag pulldown (anti-ALFA nanobody agarose) from lysate of NIH3T3 knock-in cells expressing PRPS1-ALFA from the endogenous locus; washes with 0.5 M NaCl, 0.5% Triton X-100
# [4] = molecular target: T1, PRPS1 (endogenous, mouse) (mouse (endogenous in NIH3T3 and C57BL/6 tissues)); experiment: SEC; native whole-cell lysates of parental NIH3T3 and HEK293T cells on Superose 6 Increase 3.2/300; fractions analysed by Western blot with internal size standards; digitonin lysis buffer pH 7.5, 200 mM NaCl
# [5] = molecular target: T1, PRPS1 (endogenous, mouse) (mouse (endogenous in NIH3T3 and C57BL/6 tissues)); experiment: SEC; native whole-cell lysates of NIH3T3 CRISPR knockout lines (P2/AP1/AP2, P2/AP1, P1/AP2, P1, P2, AP2, AP1, AP1/AP2, P1/AP1 KO), some re-expressing PRPS2, AP1 or AP2 constructs, on Superose 6 Increase 3.2/300; fractions analysed by Western blot
# [6] = molecular target: T3, PRPS1-ALFA (transiently transfected); experiment: co-IP; ALFA pulldown from whole cell extracts of NIH3T3 P2/AP2 KO cells transiently transfected with PRPS1-ALFA
# [7] = molecular target: T4, PRPS2 (endogenous, mouse) (mouse (endogenous in NIH3T3 and C57BL/6 tissues)); experiment: SEC; native tissue lysates (liver, kidney, lung) of 12-week-old male C57BL/6 mice on Superose 6 Increase 3.2/300; fractions analysed by Western blot
# [8] = molecular target: T5, PRPSAP2 (endogenous, mouse) (mouse (endogenous in NIH3T3 and C57BL/6 tissues)); experiment: as above
# [9] = molecular target: PRPSAP1 (endogenous, mouse) (mouse (endogenous in NIH3T3 and C57BL/6 tissues)) (UniProt Q9D0M1); experiment: SEC; native whole-cell lysates of NIH3T3 P2/AP2 KO cells and of P2/AP1/AP2 KO cells stably expressing AP1 (no PRPS2, no AP2) on Superose 6 Increase 3.2/300; fractions analysed by Western blot
# [10] = molecular target: T4, PRPS2 (endogenous, mouse) (mouse (endogenous in NIH3T3 and C57BL/6 tissues)); experiment: SEC; native whole-cell lysates of parental NIH3T3 and HEK293T cells on Superose 6 Increase 3.2/300; fractions analysed by Western blot with internal size standards; digitonin lysis buffer pH 7.5, 200 mM NaCl
# [11] = molecular target: T5, PRPSAP2 (endogenous, mouse) (mouse (endogenous in NIH3T3 and C57BL/6 tissues)); experiment: as above
# [12] = molecular target: T4, PRPS2 (endogenous, mouse) (mouse (endogenous in NIH3T3 and C57BL/6 tissues)); experiment: SEC; native whole-cell lysates of NIH3T3 CRISPR knockout lines (P2/AP1/AP2, P2/AP1, P1/AP2, P1, P2, AP2, AP1, AP1/AP2, P1/AP1 KO), some re-expressing PRPS2, AP1 or AP2 constructs, on Superose 6 Increase 3.2/300; fractions analysed by Western blot
# [13] = molecular target: T5, PRPSAP2 (endogenous, mouse) (mouse (endogenous in NIH3T3 and C57BL/6 tissues)); experiment: as above
# [14] = molecular target: PRPSAP1-ALFA, short isoform (UniProt Q14558); experiment: SEC; native whole-cell lysates of NIH3T3 P2/AP2 KO cells and of P2/AP1/AP2 KO cells stably expressing AP1 (no PRPS2, no AP2) on Superose 6 Increase 3.2/300; fractions analysed by Western blot
Binder,binding [1],binding [2],binding [3],binding [4],binding [5],binding [6],binding [7],binding [8],binding [9],binding [10],binding [11],binding [12],binding [13],binding [14]
"PRPS2 (endogenous, mouse) (enzyme, UniProt Q9CS42 1-318, looked up, PRPS2, endogenous in mouse cells and tissues; also called P2; phosphoribosyl pyrophosphate synthetase 2; source: endogenous, NIH3T3 lysate (parental and CRISPR knockout lines); endogenous, C57BL/6 mouse liver, kidney and lung lysates) MPNIVLFSGSSHQDLSQRVADRLGLELGKVVTKKFSNQETSVEIGESVRGEDVYIIQSGCGEINDNLMELLIMINACKIASSSRVTAVIPCFPYARQDKKDKSRAPISAKLVANMLSVAGADHIITMDLHASQIQGFFDIPVDNLYAEPAVLQWIRENITEWRNCIIVSPDAGGAKRVTSIADRLNVEFALIHKERKKANEVDRMVLVGDVKDRVAILVDDMADTCGTICHAADKLLSAGATKVYAILTHGIFSGPAISRINSAAFEAVVVTNTIPQEDKMKHCSKIQVIDISMILAEAIRRTHNGESVSYLFSHVPL",binds,binds,binds,binds,binds,–,–,–,–,–,–,–,–,–
"PRPSAP1 (endogenous, mouse) (protein, UniProt Q9D0M1 1-356) MNAARTGYRVFSANSTAACTELAKRITERLGAELGKSVVYQETNGETRVEIKESVRGQDIFIIQTIPRDVNTAVMELLIMAYALKTACARNIIGVIPYFPYSKQSKMRKRGSIVCKLLASMLAKAGLTHIITMDLHQKEIQGFFSFPVDNLRASPFLLQYIQEEIPNYRNAVIVAKSPDAAKRAQSYAERLRLGLAVIHGEAQCTELDMDDGRHSPPMVKNATVHPGLELPLMMAKEKPPITVVGDVGGRIAIIVDDIIDDVESFVAAAEILKERGAYKIYVMATHGILSAEAPRLIEESPIDEVVVTNTVPHELQKLQCPKIKTVDISLILSEAIRRIHNGESMAYLFRNITVDD",–,–,–,–,–,binds weakly,binds,binds,binds,binds,binds,binds,binds,–
"PRPSAP1-ALFA, short isoform (protein, UniProt Q14558 1-356) MNAARTGYRVFSANSTAACTELAKRITERLGAELGKSVVYQETNGETRVEIKESVRGQDIFIIQTIPRDVNTAVMELLIMAYALKTACARNIIGVIPYFPYSKQSKMRKRGSIVCKLLASMLAKAGLTHIITMDLHQKEIQGFFSFPVDNLRASPFLLQYIQEEIPNYRNAVIVAKSPDAAKRAQSYAERLRLGLAVIHGEAQCTELDMDDGRHSPPMVKNATVHPGLELPLMMAKEKPPITVVGDVGGRIAIIVDDIIDDVESFVAAAEILKERGAYKIYVMATHGILSAEAPRLIEESSVDEVVVTNTVPHEVQKLQCPKIKTVDISLILSEAIRRIHNGESMAYLFRNITVDD",–,–,–,–,–,–,–,–,–,–,–,binds,–,binds
